In PubChem BioAssay AID1671190 (National Center for Advancing Translational Sciences (NCATS), 2021):
About 6,100 (1.1%) of roughly 580,000 compounds were called active. The shares of active, inactive and inconclusive entries below differ from those in the screen. Calls follow the shape of the dose curve; as a rule, active = well fitted inhibition curve with a large enough effect; inconclusive = small, poorly fitted or top-dose-only effect, or another doubt; inactive = no such curve, though single readings can be large or run the other way. Potencies beside an inconclusive call are fits to weak or partial responses and may not hold up.

Protein sequences, listed by entry. Tags and fused reporters are not part of them. Lines headed by an entry give the natural chain unless they say otherwise; changes in a name come on top.
UniProt P18054: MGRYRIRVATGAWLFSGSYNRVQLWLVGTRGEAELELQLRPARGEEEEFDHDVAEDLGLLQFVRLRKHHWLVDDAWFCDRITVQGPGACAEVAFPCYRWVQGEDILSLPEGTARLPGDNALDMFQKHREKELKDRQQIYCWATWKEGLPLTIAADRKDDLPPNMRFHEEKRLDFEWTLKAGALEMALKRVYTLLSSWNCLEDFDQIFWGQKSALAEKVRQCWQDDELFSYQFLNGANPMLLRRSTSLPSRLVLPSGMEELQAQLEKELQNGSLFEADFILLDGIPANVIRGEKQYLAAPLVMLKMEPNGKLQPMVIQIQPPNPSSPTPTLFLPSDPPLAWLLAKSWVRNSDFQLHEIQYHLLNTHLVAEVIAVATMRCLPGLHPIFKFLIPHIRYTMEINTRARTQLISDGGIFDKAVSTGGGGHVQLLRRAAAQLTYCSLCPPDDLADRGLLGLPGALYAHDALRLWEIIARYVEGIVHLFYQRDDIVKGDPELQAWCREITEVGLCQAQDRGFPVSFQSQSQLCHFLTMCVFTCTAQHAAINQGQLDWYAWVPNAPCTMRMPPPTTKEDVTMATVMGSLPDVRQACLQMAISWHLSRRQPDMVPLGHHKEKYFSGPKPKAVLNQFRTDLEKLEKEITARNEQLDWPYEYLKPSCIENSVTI

target: Polyunsaturated fatty acid lipoxygenase ALOX12 (Homo sapiens) (UniProt P18054); assay: Primary qHTS assay for inhibitors of human arachidonate 12S-lipoxygenase (ALOX12): Round 2; settings: purified 12hLO, xylenol orange hydroperoxide absorbance; activity change, negative = inhibition: at 108 µM (top of the series) unless noted
Procedure, shortened: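 Purified human 12hLO (150 nM final) in 25 mM Hepes, 0.01% Triton X-100, pH 7.0 was preincubated 15 min at room temperature with compound. Then 40 uM arachidonic acid was added, 30 min. Hydroperoxide was read by Fe-XO absorbance ratio 573/405 nm.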
% is scaled to controls: 0 for no effect and ±100 for the full control effect; potency is read from the fitted curve at half-maximal effect.

Row | SMILES | Potency | activity change, negative = inhibition
1 | COc1cc(CNC2CCCCCC2)cc(OC)c1OC | inconclusive: 0.631 µM [inhibitor, full curve, poor fit] | –
2 | C=CCS(=O)(=O)O | – | inactive: 17.1%
3 | Cc1ccc(/C=C/C(=O)OCc2ccc(C#N)cc2)cc1 | inconclusive: 5.62 µM [inhibitor, partial curve, poor fit] | –
4 | c1ccc(Cc2nnc(-c3ccccc3)o2)cc1 | – | inactive: 14%
5 | Clc1ccc(-c2nc(N3CCCCC3)nc3ccccc23)cc1 | inconclusive: 126 µM [inhibitor, partial curve, poor fit] | –
6 | O=C(CSc1nc(Nc2ccccc2)nc(N2CCOCC2)n1)NC1CCCCC1 | inconclusive: 50.1 µM [inhibitor, partial curve, poor fit] | –
7 | CCCCn1c(=O)[nH]c(=O)c2c1nc(CCC(N)=O)n2CC(C)C | – | inactive: 42.4%
8 | CCOC(=O)CNC(=O)c1cc(-c2ccc3c(c2)OCCO3)oc1C | inconclusive: 79.4 µM [inhibitor, partial curve, poor fit] | –
9 | COc1ccc(CN2C(=O)CCC2(C)c2nnnn2Cc2ccccc2)cc1OC (stereo not drawn) | inconclusive: 50.1 µM [inhibitor, single point] | –
10 | Cc1cccc(CN2C(=O)N/C(=C/c3ccc(C)s3)C2=O)c1 | – | inactive: 74.1%
11 | OCCCc1ccc(O)c(O)c1 | inconclusive: 39.8 µM [inhibitor, partial curve, poor fit] | –
12 | Cc1ccc(N(Cc2cc(=O)[nH]c3ccccc23)C(=O)c2ccco2)cc1 | inconclusive: 100 µM [inhibitor, partial curve, poor fit] | –
13 | Cc1ccc(-c2csc(Nc3ccccc3)n2)cc1 | inconclusive: 50.1 µM [inhibitor, partial curve, poor fit] | –
14 | COc1ccc(-c2cc(=O)n3[nH]c(C)nc3n2)cc1OC | inconclusive: 89.1 µM [inhibitor, partial curve, poor fit] | –
15 | COc1ccc2cc(C(=O)N(C)Cc3ccc(C(N)=O)cc3)[nH]c2c1 | – | inactive: -7.77%
16 | Cc1coc2cc3oc(=O)c(CC(=O)NCCc4ccccc4)c(C)c3cc12 | – | inactive: -9.27%
17 | CC(C)C[C@@H](CN1CCC[C@@H]1CN1C(=S)NC[C@@H]1Cc1ccc(O)cc1)N1C[C@H](Cc2ccc(O)cc2)N(CC2CCCCC2)C1=S | inconclusive: 56.2 µM [inhibitor, partial curve, poor fit] | –
18 | COc1ccc(NC(=O)CSc2nc(NS(=O)(=O)c3ccccc3)cc(=O)[nH]2)cc1 | inconclusive: 100 µM [inhibitor, single point] | –
19 | COc1ccc(N2Cc3cccc(C(=O)NCc4ccc(C)cc4)c3C2=O)cc1 | – | inactive: 27.3%
20 | O=C1CCCC2=C1C(c1cccc(Cl)c1Cl)CC(=O)N2c1ccc(F)cc1 (stereo not drawn) | inconclusive: 126 µM [inhibitor, single point] | –
21 | CCOc1ccc(CCNC(=O)c2cc3c(-c4ccc(OC)c(OC)c4)nn(C)c3s2)cc1OCC | inconclusive: 28.2 µM [inhibitor, full curve, poor fit] | –
22 | Cc1cc2ccccc2n1CC(=O)N1CCN(CC(=O)N2CCCC2)CC1 | – | inactive: -1.49%
23 | COc1ccccc1CNC(=O)CCCNS(=O)(=O)c1cccc2nsnc12 | inconclusive: 44.7 µM [inhibitor, partial curve, poor fit] | –

Row | SMILES | Potency | activity change, negative = inhibition
24 | CCOc1ccc(NC(=O)Cn2cc(C(=O)c3ccco3)c3ccccc32)cc1 | inactive | –
25 | C[C@@H](CN1C2=NC[C@@H](Cc3ccccc3)N2C[C@H]1Cc1ccc(O)cc1)NC(=O)CCC1CCCCC1 | inconclusive: 100 µM [inhibitor, single point] | –
26 | COc1ccc(-c2cc(C[C@@H]3CC[C@H](O)[C@@H](CN(Cc4ccccc4OC)Cc4ccccc4OC)O3)no2)cc1 | inconclusive: 35.5 µM [inhibitor, single point] | –
27 | CCc1c(C)sc(NC(=O)c2ccc(C(C)(C)C)cc2)c1C#N | inconclusive: 39.8 µM [inhibitor, partial curve, poor fit] | –
28 | COc1ccc(O)c(C(=O)OC(C)C(=O)C23CC4CC(CC(C4)C2)C3)c1 (stereo not drawn) | inconclusive: 10 µM [inhibitor, partial curve, poor fit] | –
29 | CCN(CC)C(=O)CN1CCN(c2ncccn2)CC1 | – | inactive: -15.6%
30 | O=C(CNc1ccccc1)N/N=C/c1ccc([N+](=O)[O-])o1 | – | inactive: -3.25%
31 | COc1cc(/C=C(\C#N)c2nc3ccccc3o2)ccc1O | inconclusive: 56.2 µM [inhibitor, partial curve, poor fit] | –
32 | O=C(CSCc1cc(=O)c2cc(F)ccc2[nH]1)Nc1ccccc1Cl | – | inconclusive: -36% [inhibitor]
33 | CC(C)(C)C(=O)NCc1ccc(-c2nc3ccccc3s2)cc1 | inconclusive: 126 µM [inhibitor, single point] | –
34 | CS(=O)(=O)N(Cc1cccnc1)C1CN(C(=O)Cc2c[nH]c3ccccc23)C1 | – | inactive: 1.08%
35 | CCOc1ccccc1C(=O)N1CCC2(CC1)NC(=O)N(c1cccc(Cl)c1)N2 | inconclusive: 5.01 µM [inhibitor, full curve, poor fit] | –
36 | COc1ccc(-c2nc(NCCN3CCCCC3C)c3ccccc3n2)cc1 (stereo not drawn) | – | inactive: -3.01%
37 | O=C(Nc1ccc(O)cc1)N1CCOCC1 | inconclusive: 44.7 µM [inhibitor, partial curve, poor fit] | –
38 | CCc1c(C)nc2cc(-c3ccc(OC)c(OC)c3)nn2c1NCC1CC1 | – | inactive: -10.6%
39 | COCCNC(=O)CS(=O)Cc1nc(-c2ccccc2C)oc1C (stereo not drawn) | – | inactive: 16.4%
40 | CC(=O)NCC(=O)N(Cc1ccco1)C1(C(=O)NC2CCCCC2)CCCCC1 | inconclusive: 44.7 µM [inhibitor, partial curve, poor fit] | –
41 | Cc1ccccc1C(=O)Nc1nonc1-c1ccc(Cl)cc1 | inconclusive: 31.6 µM [inhibitor, single point] | –
42 | FC(F)Oc1ccc(NC(=S)NCCc2ccccc2)cc1 | inconclusive: 7.94 µM [inhibitor, partial curve, poor fit] | –
43 | Cc1ccccc1-c1noc(CCC(=O)NCc2ccco2)n1 | inconclusive: 89.1 µM [inhibitor, single point] | –
44 | CCc1c(-c2ccc(Cl)cc2)ncn1CCc1ccccc1OC | inconclusive: 39.8 µM [inhibitor, partial curve] | –
45 | CC(=O)c1c(C)[nH]c(C(=O)Cn2nnc(-c3ccc(C(C)C)cc3)n2)c1C | active: 15.8 µM | –
46 | CSc1cccc(NC(=O)c2ccc3c(c2)CCC3)c1 | – | inactive: 19.1%

Arranged by SMILES length (smallest number first): three of the compounds above.
Row | SMILES | Potency | activity change, negative = inhibition
43 | Cc1ccccc1-c1noc(CCC(=O)NCc2ccco2)n1 | inconclusive: 89.1 µM [inhibitor, single point] | –
39 | COCCNC(=O)CS(=O)Cc1nc(-c2ccccc2C)oc1C (stereo not drawn) | – | inactive: 16.4%
25 | C[C@@H](CN1C2=NC[C@@H](Cc3ccccc3)N2C[C@H]1Cc1ccc(O)cc1)NC(=O)CCC1CCCCC1 | inconclusive: 100 µM [inhibitor, single point] | –

(listing goes on)

Row | SMILES | Potency | activity change, negative = inhibition
47 | Cc1cc(C)c2c(CN3CCOCC3)cc(=O)oc2c1C | inconclusive: 112 µM [inhibitor, single point] | –
48 | Cc1cccnc1NC(=O)c1cc(-c2cccnc2)nc2ccccc12 | – | inactive: 4.35%
49 | CN1CCN(CC(=O)Nc2ccc(OCc3ccccc3)cc2)CC1 | inconclusive: 39.8 µM [inhibitor, partial curve, poor fit] | –
50 | CC(=O)N(CCCN(C)C)Cc1ccccn1 | inconclusive: 0.316 µM [inhibitor, full curve, poor fit] | –
51 | CSc1cccc(CN2CCC(Oc3ccc(C(=O)N4CCCCC4)cc3)CC2)c1 | inconclusive: 100 µM [inhibitor, partial curve, poor fit] | –
52 | N#CCSc1ccsc1C(=O)Nc1ccc(F)cc1 | inconclusive: 35.5 µM [inhibitor, partial curve, poor fit] | –
53 | O=C(Cn1ccc2ccc(Br)cc21)Nc1nccs1 | inconclusive: 5.01 µM [inhibitor, full curve, poor fit] | –
54 | CC(=O)c1cc2c(cc1N/C(=N/S(=O)(=O)c1ccc(Br)cc1)c1ccccc1)OCO2 | inconclusive: 89.1 µM [inhibitor, partial curve, poor fit] | –
55 | COc1ccc(C(=O)Cn2c(=O)c(-c3cc(C)ccc3NC(C)=O)nc3ccccc32)cc1 | inconclusive: 50.1 µM [inhibitor, partial curve, poor fit] | –
56 | COc1ccc(NC(C)=O)cc1NC(=O)Cn1nc2c(cc1=O)CCCCC2 | – | inactive: 38.4%
57 | Cc1c(C(=O)N(CC#N)C2CC2)sc2ccccc12 | inconclusive: 89.1 µM [inhibitor, single point] | –
58 | COCCn1c(SCC(=O)Nc2cccnc2Cl)nc2cc(Cl)ccc2c1=O | – | inactive: 179%
59 | COC(=O)c1ccccc1NC(=O)N1CCc2c(sc3c2CCCC3)C1c1ccc(F)cc1 (stereo not drawn) | – | inactive: -5.02%
60 | Cc1[nH]c2ccc(C(=O)N3CCN(c4ccc(F)cc4)CC3)cc2c1C | inconclusive: 112 µM [inhibitor, partial curve, poor fit] | –
61 | Cc1csc(NC(=O)c2ccccc2C(=O)O)n1 | inconclusive: 0.794 µM [inhibitor, partial curve, poor fit] | –
62 | Cc1nn(CC(=O)Nc2ccc3c(c2)nc(CCNC(=O)C2CCCC2)n3C)c(=O)c2ccccc12 | – | inactive: -15.2%
63 | Cc1nc(NC(C)C)sc1C(=O)NCc1ccncc1 | inconclusive: 79.4 µM [inhibitor, single point] | –
64 | CC1C(c2ccccc2)OCCN1C(=S)NC(=O)c1ccccc1 (stereo not drawn) | inconclusive: 79.4 µM [inhibitor, single point] | –
65 | C=CCN=c1scc(-c2ccc3c(c2)NC(=O)CO3)n1/N=C(\C)c1ccccn1 | – | inactive: 0%
66 | CCC(c1nnnn1-c1c(C)cccc1C)N1CCCN(Cc2ccc(F)cc2)CC1 (stereo not drawn) | inconclusive: 112 µM [inhibitor, single point] | –
67 | CC(=O)Nc1ccc(C(=O)C(C)OC(=O)C23CC4CC(CC(C4)C2)C3)cc1 (stereo not drawn) | inconclusive: 112 µM [inhibitor, single point] | –
68 | O=C(Cc1c[nH]c2ccccc12)NCc1ccccc1OC(F)F | inconclusive: 0.355 µM [inhibitor, full curve, poor fit] | –
